Results on 60 compounds are retold here after PubChem BioAssay AID2685 (National Center for Advancing Translational Sciences (NCATS), 2010).

The nature of the assay: qHTS Assay for Lipid Storage Modulators in Drosophila S3 Cells.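 As to cell number change: cells counted by Cell Tracker Red CMTPX staining in the red channel.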 The conditions noted are these: BODIPY lipid droplet fluorescence, 18-24 h; for cell number change: measured here: cell count max response, cells fed with added oleic acid. The gist of the method:
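Drosophila S3 cells loaded with oleic acid (400 uM, as added) and compounds at several concentrations; lipid droplets imaged by 488-nm laser-scanning cytometry, 500–530 nm intensity and object ratio to cell channel. Percent activity normalized to 20 uM Triacsin C.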
(qHTS replaces the single test concentration by a dilution series.)

[1] abbreviates: measured here: cell number channel AC50, cells fed with added oleic acid.
[2] abbreviates: measured here: lipid fluorescence (Fed channel) AC50, cells fed with added oleic acid.

“And” between values parts separate entries of the source, which are not always exact repeats. Equal entries are not always repeated. This is one part of the list. Further columns of the screen follow, without active or inactive calls. Most of these compounds were active or inconclusive in the main read-out, so they are no random draw. The note in brackets gives the kind of curve behind each potency; many fits are weak.

Turning to `Cc1cc(OCc2cc(C(=O)N(C)CC3CCOCC3)no2)cc(C)c1Cl`, the cell number change was -57.4%. Under setting [1], the AC50 was 29.1 µM [falling, single point]. For the same compound, under setting [2], the concentration at half-maximal activity (AC50) was 29.1 µM [falling, single point].

Take `CCOC(=O)c1nnn(CC(=O)NC(=O)Nc2ccccc2)c1C(=O)OCC`: the cell number change came out at 20.4%. Moreover, under setting [1], the AC50 is 0.259 µM [falling, partial curve, poor fit].

Turning to `Cc1ccc(C(=O)N2CCN(CCNC(=O)C(=O)NCc3ccc(Cl)cc3)CC2)cc1`, the AC50 under setting [2] was 29.1 µM [rising, single point].

For the compound `CCCNC(=O)C(Cc1ccc(C(F)(F)F)cc1)NC(=O)c1ccc2ccccc2n1` (stereo unspecified), the cell number change was -24.7%. The concentration at half-maximal activity (AC50) under setting [2] was 18.4 µM [falling, single point].

For the compound `CCOC(=O)N/N=C\c1ccccc1OC/C=C/c1ccccc1`, the cell number change worked out at 37.3%. The AC50 under setting [1] is 20.6 µM [rising, partial curve, poor fit]. Moreover, the AC50 under setting [2] is 0.184 µM [rising, full curve, poor fit].

As to `CN(C)c1ccc(NC(=O)Nc2cccc(Cl)c2)cc1`, under setting [1], the AC50 was 1.64 µM [rising, partial curve, poor fit].

Take `C=C(C)C1CC=C(C)/C(=N\NC(=S)Nc2ccc(C)cc2)C1` (stereo unspecified): the cell number change was 45.5%. Moreover, the AC50 under setting [1] is 6.51 µM [falling, single point].

For `CN(Cc1ccccc1N1CCCC1)C(=O)c1cc2cc(Cl)ccc2o1`, the cell number change is 37.4%. For the same compound, the AC50 under setting [1] is 16.4 µM [rising, partial curve, poor fit].

With `CC(O/N=C\c1ccccc1O)C(=O)Nc1ccccc1C(=O)N1CCOCC1` (stereo unspecified), the cell number change came out at 41.4%. The AC50 under setting [1] is 0.206 µM [falling, full curve, poor fit]. For the same compound, the AC50 under setting [2] is 29.1 µM [rising, single point].

As for `C=CCn1cc(-c2ccccc2)cc(C#N)c1=O`, the cell number change is -14.6%. Moreover, the AC50 under setting [2] is 6.51 µM [rising, single point].

On to `CSc1nc2ccccc2c(=O)n1N`, for which the cell number change was 30.4%. The AC50 under setting [1] was 13 µM [rising, single point]. Besides, the AC50 under setting [2] was 0.116 µM [rising, single point].

On to `COc1ccc(-n2c(=O)[nH]c3c(C(N)=O)nc(C4CCCCC4)nc32)cc1`, for which the cell number change came out at 11.4%.

On to `CCN(C(=O)CSc1nnc(C)n1Cc1ccccc1)C1CCS(=O)(=O)C1` (stereo unspecified), for which the cell number change worked out at 7.29%. Also, the AC50 under setting [2] is 29.1 µM [falling, single point].

In the case of `Cc1cccc(N2C(=O)N3[C@H](c4ccc(Br)cc4)[C@@H]4C(=O)N(C(C)(C)C)C(=O)[C@@H]4[C@]3(C)C2=O)c1`, the cell number change is -8.41%.

As for `c1ccc(-c2nc(-c3cccnc3)cs2)cc1`, the cell number change was -32.2%. Further, the AC50 under setting [1] is 29.1 µM [falling, single point].

`CC1Cc2ccccc2N1C(=O)C1CCCN1S(=O)(=O)c1ccc(Cl)cc1` (stereo unspecified): the cell number change was 26.7%. Under setting [2], the half-maximal activity concentration (AC50) was 7.31 µM [falling, single point].

Turning to `COC(=O)c1ccc(COc2ccccc2/C=C(\C#N)C(=O)Nc2c(C)cccc2C)cc1`, the cell number change was 1.35%. For the same compound, the AC50 under setting [2] was 6.51 µM [falling, partial curve].

Take `CCOC(=O)c1ccccc1NC(=O)CSc1nc2ccccc2n1CC(=O)N1CCCC1`: the cell number change amounted to 45.2%. Moreover, the AC50 under setting [1] is 0.231 µM [rising, full curve, poor fit]. For the same compound, under setting [2], the AC50 was 0.461 µM [rising, full curve].

Turning to `CCOC(=O)C1=C(COC(=O)C2(C)CC2(Cl)Cl)NC(=O)NC1c1ccc(OC)cc1` (stereo unspecified), the cell number change came out at 9.02%. In addition, under setting [2], the AC50 is 14.6 µM [rising, single point].

In the case of `Cc1c(CCOC(=O)CC23CC4CC(CC(C4)C2)C3)sc[n+]1CC(=O)c1ccc(Br)cc1`, the cell number change was -92.3%. The AC50 under setting [1] is 29.1 µM [falling, single point]. In addition, the AC50 under setting [2] is 29.1 µM [falling, single point].

In the case of `COc1ccc(CCNC(=O)Cn2nc([N+](=O)[O-])c(Br)c2C)cc1OC`, the cell number change is -28.7%. Also, the AC50 under setting [1] was 0.0058 µM [falling, full curve].

Regarding `CC(C)(C)c1cc(C(=O)N/N=C/c2ccc([N+](=O)[O-])s2)n[nH]1`, the cell number change was -23.6%. Also, the AC50 under setting [2] is 11.6 µM [falling, partial curve].

Consider `COCCCN1C(=O)c2ccc(C(=O)Nc3ccccc3Cl)cc2C1=O`, for which the cell number change is -0.202%. In addition, under setting [2], the AC50 is 0.82 µM [falling, full curve, poor fit].

As to `COc1ccccc1NC(=O)c1cc2c(CO)cnc(C)c2oc1=Nc1cccc(C(N)=O)c1`, the cell number change stood at 1.8%.

For `Cc1ccc(NC(=O)CSc2nnc(Cc3ccccc3)c(=O)[nH]2)c(C)c1`, the cell number change is 15.1%. Moreover, under setting [2], the AC50 is 29.1 µM [rising, single point].

For `CCCC(=O)Nc1ccc(NC(=O)c2cc3ccccc3o2)c(OC)c1`, the cell number change was -24.1%.

For the compound `COc1cccc(N2CC(C(=O)Nc3c(C(N)=O)oc4ccccc34)CC2=O)c1` (stereo unspecified), the cell number change came out at 25%. Besides, under setting [1], the AC50 was 6.51 µM [falling, single point].

With `CC(=O)c1cc(OC(=O)N2CCOCC2)ccc1OC(=O)N1CCOCC1`, the cell number change was 13.5%. The AC50 under setting [2] is 0.146 µM [falling, full curve, poor fit].

On to `CCOC(=O)N1CCN(S(=O)(=O)c2cc([N+](=O)[O-])ccc2C)CC1`, for which the cell number change turned out to be 142%.

Regarding `O=C(CN1C(=O)NC2(CCCCC2)C1=O)Nc1cccc(S(=O)(=O)N2CCCC2)c1`, the cell number change was -52.5%. Besides, the AC50 under setting [1] was 14.6 µM [falling, partial curve, poor fit]. For the same compound, the concentration at half-maximal activity (AC50) under setting [2] was 29.1 µM [falling, single point].

As for `COc1cc(OC)cc(C(=O)NCC(=O)OCc2csc(-c3ccccc3)n2)c1`, the cell number change was 43%. Under setting [1], the AC50 is 7.31 µM [rising, partial curve]. In addition, under setting [2], the half-maximal activity concentration (AC50) is 3.26 µM [rising, single point].

For the compound `NC(N)=NC(N)=Nc1ccc(SC(F)(F)F)cc1`, the cell number change is -0.23%. In addition, under setting [1], the AC50 was 1.64 µM [rising, partial curve, poor fit]. In addition, the AC50 under setting [2] was 1.03 µM [rising, full curve].

For the compound `COc1ccc(/C=C2\COc3ccccc3C2=O)cc1OC`, the cell number change was -49.2%. In addition, the AC50 under setting [1] was 20.6 µM [falling, partial curve, poor fit]. In addition, the AC50 under setting [2] was 23.1 µM [falling, partial curve, poor fit].

As for `O=C(CCNC(=O)N1CC(=O)Nc2ccccc21)Nc1ccc(F)c(Cl)c1`, the cell number change is -14.4%. Further, the AC50 under setting [2] was 13 µM [falling, single point].

On to `COC(=O)\C(C(C)=O)=C(/C=C/C=C/N(C)C)N(C)C`, for which the cell number change was -12.1%. For the same compound, the AC50 under setting [2] is 1.16 µM [falling, full curve, poor fit].

Regarding `c1ccc2c(c1)[nH]c1c(N3CCOCC3)ncnc12`, the cell number change came out at 46.6%. For the same compound, the AC50 under setting [1] was 18.4 µM [rising, single point].

In the case of `CC(=O)OCC(=O)Nc1ccc(SC(F)F)cc1`, the cell number change is 71.6%. Further, the AC50 under setting [2] was 29.1 µM [rising, single point].

In the case of `CNC(=O)C1=C(C)NC(=S)NC1c1cccs1` (stereo unspecified), the cell number change was -4.52%.

For `Cc1sc2ncnc(N3CCC(C(=O)Nc4nnc(SCc5ccccc5F)s4)CC3)c2c1C`, the cell number change was found to be 68.5%. The AC50 under setting [1] is 3.26 µM [rising, full curve].

Regarding `COC(=O)C1=C(C)NC(C)=C(C(=O)OC)C1c1ccc(N(C)C)cc1`, the cell number change was found to be 28.9%.

For `CCOCCCNC(=O)CN1C(=O)COc2ccc(S(=O)(=O)N3CCC(C)CC3)cc21`, the cell number change is 18.6%.

In the case of `CN1CCN(C(=O)C2CC(=O)N(c3ccc(F)c(Cl)c3)C2)CC1` (stereo unspecified), the cell number change was determined as 12%. Moreover, the AC50 under setting [2] is 0.651 µM [falling, full curve, poor fit].

In the case of `N#CSCC(=O)c1cccc2ccccc12`, the cell number change is -28.4%. Moreover, under setting [2], the AC50 is 29.1 µM [falling, single point].

In the case of `CCc1nnc(NC(=O)c2ccc(S(=O)(=O)N3CCCc4ccccc43)cc2)o1`, the cell number change was found to be 0.884%. For the same compound, under setting [2], the AC50 was 4.61 µM [falling, partial curve].

Regarding `CCOC(=O)N1CCN(CC(=O)Nc2sccc2C#N)CC1`, the cell number change is -18.1%.

For the compound `COc1cc2c(c(OC)c1OC)-c1c(cc3c(c1O)OCO3)C[C@@H](C)[C@@H](C)C2`, the cell number change is -38%. Also, the half-maximal activity concentration (AC50) under setting [1] was 25.9 µM [falling, single point]. The AC50 under setting [2] is 16.4 µM [falling, partial curve].

On to `Cc1cccc(C(=O)O)c1NC(=O)Cc1cccc2ccccc12`, for which the cell number change was 8.84%.

As to `COc1cccc(-c2n[nH]c(=S)n2Cc2ccco2)c1`, the cell number change was determined as 6.24%. Moreover, the AC50 under setting [2] is 0.461 µM [rising, full curve, poor fit].

For `COc1ccc(S(=O)(=O)N(C)CC(=O)NCc2ccccn2)cc1`, the cell number change worked out at 9.13%. Further, under setting [2], the AC50 is 6.51 µM [falling, single point].

Take `O=C(NCC1COc2ccccc2O1)c1ccc(Cl)c(S(=O)(=O)N2CCOCC2)c1` (stereo unspecified): the cell number change came to 10%.

On to `CC(C)C[C@H](NC(=O)C1CC(=O)N(c2ccc(F)cc2)C1)C(=O)N1CCCCC1` (stereo partly specified), for which the cell number change was determined as 24.8%. Further, the half-maximal activity concentration (AC50) under setting [2] is 11.6 µM [rising, partial curve].

`CC(C)(O)C#Cc1ccc(C(=O)NCc2ccccc2F)cc1`: the AC50 runs as follows: under setting [1], 2.06 µM [rising, partial curve]; under setting [2], 1.84 µM [rising, partial curve].

Consider `Cc1ccc(C(=O)NCC(=O)OCC(=O)N(CC(C)C)c2c(N)n(Cc3ccccc3)c(=O)[nH]c2=O)cc1`, for which the cell number change worked out at 6.36%. For the same compound, the AC50 under setting [2] was 1.3 µM [falling, full curve].

Regarding `CCCCn1c(O)c(/C=C2\C=NN=C2c2ccccc2)sc1=S`, the cell number change is -17.8%.

For the compound `Cn1c(=O)c2c(nc(Oc3ccccc3)n2C)n(C)c1=O`, the cell number change worked out at 22.7%. Besides, the AC50 under setting [1] is 0.164 µM [falling, full curve, poor fit]. Moreover, the AC50 under setting [2] is 6.51 µM [falling, single point] and 130 nM [falling, full curve, poor fit].

With `OC(CN1CCOCC1)CN1CCOCC1`, the cell number change worked out at 7.08%.

As to `CCC(=O)Nc1ccc(C(=O)N/N=C/c2ccccc2[N+](=O)[O-])cc1`, the cell number change is -17%.

Take `Cc1ncc([N+](=O)[O-])n1CC(=O)N/N=C/c1ccc(F)cc1`: the cell number change is -11.2%. Further, the AC50 under setting [2] is 1.84 µM [falling, partial curve].

With `CCOC(=O)CC(NC(=O)c1ccccc1F)c1ccc(C)cc1` (stereo unspecified), the cell number change amounted to 18.6%.

As for `COC(=O)c1c[nH]n2c(=O)c(Cc3ccc(F)cc3Cl)c(C)nc12`, the cell number change was -31.8%. Further, under setting [1], the concentration at half-maximal activity (AC50) was 4.11 µM [falling, partial curve]. The AC50 under setting [2] was 16.4 µM [falling, partial curve].

Usually AC50 stands for the concentration giving half of the maximal activity seen.
